Experimental data reported in publication PMC6744468.
No constants are given. Whether binding was seen depends on the method and setting. Binding seen in cells or lysates may run through a third protein. Here binding means that the protein was enriched with, or labelled near, the bait; the list need not be complete.

Amino acid sequences for entries named in this document (tags omitted).
UniProt P60520: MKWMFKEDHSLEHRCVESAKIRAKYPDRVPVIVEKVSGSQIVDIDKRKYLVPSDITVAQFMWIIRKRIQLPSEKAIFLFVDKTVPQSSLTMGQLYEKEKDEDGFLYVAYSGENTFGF
UniProt Q15154: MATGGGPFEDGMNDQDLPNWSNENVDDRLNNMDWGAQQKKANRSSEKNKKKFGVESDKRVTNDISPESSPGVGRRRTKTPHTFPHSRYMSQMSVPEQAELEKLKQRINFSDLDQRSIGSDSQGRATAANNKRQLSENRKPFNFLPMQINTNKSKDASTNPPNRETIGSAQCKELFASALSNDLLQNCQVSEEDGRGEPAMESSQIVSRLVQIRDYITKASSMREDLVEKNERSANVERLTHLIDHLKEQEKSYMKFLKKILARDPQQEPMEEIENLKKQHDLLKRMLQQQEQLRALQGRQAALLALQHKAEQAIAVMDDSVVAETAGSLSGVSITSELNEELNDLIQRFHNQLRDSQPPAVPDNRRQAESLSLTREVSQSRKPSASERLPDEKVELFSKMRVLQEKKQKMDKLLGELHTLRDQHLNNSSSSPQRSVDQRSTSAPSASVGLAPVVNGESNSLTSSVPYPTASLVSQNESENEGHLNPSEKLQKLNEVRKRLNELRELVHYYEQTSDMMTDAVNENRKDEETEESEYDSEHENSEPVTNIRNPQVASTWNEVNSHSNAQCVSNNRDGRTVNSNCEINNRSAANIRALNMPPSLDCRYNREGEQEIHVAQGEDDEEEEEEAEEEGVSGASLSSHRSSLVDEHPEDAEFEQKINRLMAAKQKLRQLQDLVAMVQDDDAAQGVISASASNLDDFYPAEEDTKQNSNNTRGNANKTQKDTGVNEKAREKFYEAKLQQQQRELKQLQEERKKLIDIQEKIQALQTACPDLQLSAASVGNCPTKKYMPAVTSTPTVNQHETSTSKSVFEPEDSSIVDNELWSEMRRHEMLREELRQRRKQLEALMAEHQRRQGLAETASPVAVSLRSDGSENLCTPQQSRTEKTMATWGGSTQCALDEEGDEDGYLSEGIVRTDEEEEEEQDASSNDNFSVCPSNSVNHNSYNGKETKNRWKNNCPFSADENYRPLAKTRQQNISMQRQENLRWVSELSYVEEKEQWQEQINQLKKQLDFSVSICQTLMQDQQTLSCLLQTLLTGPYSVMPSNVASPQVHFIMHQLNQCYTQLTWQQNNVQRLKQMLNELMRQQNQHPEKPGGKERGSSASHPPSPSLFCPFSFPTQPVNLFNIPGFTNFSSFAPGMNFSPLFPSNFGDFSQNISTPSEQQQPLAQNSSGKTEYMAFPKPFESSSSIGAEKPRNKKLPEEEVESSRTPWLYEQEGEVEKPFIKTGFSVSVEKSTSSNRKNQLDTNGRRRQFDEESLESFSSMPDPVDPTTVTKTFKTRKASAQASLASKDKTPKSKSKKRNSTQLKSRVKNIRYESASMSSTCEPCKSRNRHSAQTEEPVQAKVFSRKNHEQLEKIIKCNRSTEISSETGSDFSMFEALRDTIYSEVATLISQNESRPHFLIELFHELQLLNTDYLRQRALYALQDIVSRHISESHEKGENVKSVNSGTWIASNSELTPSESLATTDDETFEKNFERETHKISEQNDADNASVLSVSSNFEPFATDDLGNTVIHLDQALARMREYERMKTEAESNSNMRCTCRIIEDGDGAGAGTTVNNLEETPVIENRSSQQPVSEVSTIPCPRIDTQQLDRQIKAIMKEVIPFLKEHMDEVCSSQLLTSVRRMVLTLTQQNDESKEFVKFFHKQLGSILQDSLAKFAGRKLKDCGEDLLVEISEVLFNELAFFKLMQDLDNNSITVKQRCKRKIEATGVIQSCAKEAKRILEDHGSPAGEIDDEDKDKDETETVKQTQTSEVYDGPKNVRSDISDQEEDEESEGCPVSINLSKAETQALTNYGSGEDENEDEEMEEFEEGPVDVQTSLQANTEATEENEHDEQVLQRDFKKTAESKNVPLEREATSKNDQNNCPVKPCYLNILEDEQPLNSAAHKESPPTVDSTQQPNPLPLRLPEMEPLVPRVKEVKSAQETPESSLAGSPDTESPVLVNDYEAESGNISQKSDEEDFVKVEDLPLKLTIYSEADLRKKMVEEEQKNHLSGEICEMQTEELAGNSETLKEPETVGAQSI

Target: GFP-GABARAPL2 (human) (UniProt P60520)
Assay: affinity purification with mass spectrometry; GFP-trap MA beads on lysates of doxycycline-induced stable MCF7 cells (GFP-GABARAP, GFP-GABARAPL2, GFP-LC3B or GFP-3xFLAG control), standard IP lysis buffer (50 mM HEPES pH 7.4, 100 mM NaCl, 0.5% Triton-X100), 90 min, LC-MS, biological quadruplicates

binding: binds
Substance: pericentriolar material 1 (PCM1), endogenous (from UniProt Q15154 1-2024)
